Measurements published in the supplement of paper PMC12823440, “Inhibitors supercharge kinase turnover through native proteolytic circuits” (Nature, 2025).
Where a name gives a salt, the structure may show the parent alone. The list shows a part of the results. Hit calls seldom repeat between salt and free forms of one compound.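 Kinases, fused to nanoluciferase, were expressed in K562 cells; luminescence was measured every 4 h from 2 to 18 h as percent of control (DMSO = 100%, positive control = 0%). A time point is decreased if signal falls significantly (2 sigma). Hits were called by the authors by a rule that is not shown; the count of time points alone does not decide it.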

The chains behind the UniProt entries cited, without tags or fusion partners. Where a name states a change or a piece, a line headed by the entry shows the natural chain unless it says otherwise.
UniProt P00519, whole entry: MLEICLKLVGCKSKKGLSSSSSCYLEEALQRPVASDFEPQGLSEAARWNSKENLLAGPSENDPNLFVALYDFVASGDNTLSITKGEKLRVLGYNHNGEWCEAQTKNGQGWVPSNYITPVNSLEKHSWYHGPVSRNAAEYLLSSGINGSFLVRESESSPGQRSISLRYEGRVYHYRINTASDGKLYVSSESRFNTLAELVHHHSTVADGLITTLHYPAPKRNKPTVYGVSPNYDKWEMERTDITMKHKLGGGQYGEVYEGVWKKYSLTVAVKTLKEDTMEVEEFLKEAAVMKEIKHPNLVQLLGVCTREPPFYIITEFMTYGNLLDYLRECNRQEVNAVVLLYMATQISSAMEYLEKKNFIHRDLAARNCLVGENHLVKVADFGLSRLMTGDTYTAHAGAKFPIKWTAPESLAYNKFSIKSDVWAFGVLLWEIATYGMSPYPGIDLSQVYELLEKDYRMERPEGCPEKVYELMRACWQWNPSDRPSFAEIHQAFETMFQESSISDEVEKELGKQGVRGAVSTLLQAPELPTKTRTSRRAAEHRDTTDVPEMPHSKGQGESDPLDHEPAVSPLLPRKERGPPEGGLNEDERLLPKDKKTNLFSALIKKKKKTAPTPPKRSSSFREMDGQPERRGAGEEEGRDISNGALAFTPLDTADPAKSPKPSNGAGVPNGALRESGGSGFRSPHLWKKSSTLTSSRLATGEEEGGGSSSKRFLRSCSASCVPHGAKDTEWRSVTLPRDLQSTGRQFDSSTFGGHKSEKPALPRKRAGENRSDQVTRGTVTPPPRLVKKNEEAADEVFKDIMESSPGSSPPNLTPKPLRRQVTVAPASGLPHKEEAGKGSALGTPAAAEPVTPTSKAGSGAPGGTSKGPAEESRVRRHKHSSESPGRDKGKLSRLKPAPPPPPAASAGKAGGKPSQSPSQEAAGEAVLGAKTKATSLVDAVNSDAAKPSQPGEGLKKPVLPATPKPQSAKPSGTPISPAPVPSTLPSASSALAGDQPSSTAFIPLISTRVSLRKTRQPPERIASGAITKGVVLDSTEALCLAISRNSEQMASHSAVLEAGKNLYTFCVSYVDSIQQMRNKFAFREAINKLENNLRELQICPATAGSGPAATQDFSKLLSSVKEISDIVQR
UniProt P31749: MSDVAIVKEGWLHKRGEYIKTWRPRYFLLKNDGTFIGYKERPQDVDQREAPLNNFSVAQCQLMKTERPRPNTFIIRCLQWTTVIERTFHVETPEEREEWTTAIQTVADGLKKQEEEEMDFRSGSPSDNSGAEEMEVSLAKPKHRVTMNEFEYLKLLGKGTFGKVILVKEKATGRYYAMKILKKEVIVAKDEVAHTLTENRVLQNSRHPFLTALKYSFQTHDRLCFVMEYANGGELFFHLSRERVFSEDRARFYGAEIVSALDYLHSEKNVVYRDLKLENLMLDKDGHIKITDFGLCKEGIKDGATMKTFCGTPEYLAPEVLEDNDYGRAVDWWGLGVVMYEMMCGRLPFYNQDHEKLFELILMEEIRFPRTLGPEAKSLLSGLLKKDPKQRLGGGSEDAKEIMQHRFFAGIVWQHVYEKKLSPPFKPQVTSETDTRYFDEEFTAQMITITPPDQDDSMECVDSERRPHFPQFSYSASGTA
UniProt Q9UM73: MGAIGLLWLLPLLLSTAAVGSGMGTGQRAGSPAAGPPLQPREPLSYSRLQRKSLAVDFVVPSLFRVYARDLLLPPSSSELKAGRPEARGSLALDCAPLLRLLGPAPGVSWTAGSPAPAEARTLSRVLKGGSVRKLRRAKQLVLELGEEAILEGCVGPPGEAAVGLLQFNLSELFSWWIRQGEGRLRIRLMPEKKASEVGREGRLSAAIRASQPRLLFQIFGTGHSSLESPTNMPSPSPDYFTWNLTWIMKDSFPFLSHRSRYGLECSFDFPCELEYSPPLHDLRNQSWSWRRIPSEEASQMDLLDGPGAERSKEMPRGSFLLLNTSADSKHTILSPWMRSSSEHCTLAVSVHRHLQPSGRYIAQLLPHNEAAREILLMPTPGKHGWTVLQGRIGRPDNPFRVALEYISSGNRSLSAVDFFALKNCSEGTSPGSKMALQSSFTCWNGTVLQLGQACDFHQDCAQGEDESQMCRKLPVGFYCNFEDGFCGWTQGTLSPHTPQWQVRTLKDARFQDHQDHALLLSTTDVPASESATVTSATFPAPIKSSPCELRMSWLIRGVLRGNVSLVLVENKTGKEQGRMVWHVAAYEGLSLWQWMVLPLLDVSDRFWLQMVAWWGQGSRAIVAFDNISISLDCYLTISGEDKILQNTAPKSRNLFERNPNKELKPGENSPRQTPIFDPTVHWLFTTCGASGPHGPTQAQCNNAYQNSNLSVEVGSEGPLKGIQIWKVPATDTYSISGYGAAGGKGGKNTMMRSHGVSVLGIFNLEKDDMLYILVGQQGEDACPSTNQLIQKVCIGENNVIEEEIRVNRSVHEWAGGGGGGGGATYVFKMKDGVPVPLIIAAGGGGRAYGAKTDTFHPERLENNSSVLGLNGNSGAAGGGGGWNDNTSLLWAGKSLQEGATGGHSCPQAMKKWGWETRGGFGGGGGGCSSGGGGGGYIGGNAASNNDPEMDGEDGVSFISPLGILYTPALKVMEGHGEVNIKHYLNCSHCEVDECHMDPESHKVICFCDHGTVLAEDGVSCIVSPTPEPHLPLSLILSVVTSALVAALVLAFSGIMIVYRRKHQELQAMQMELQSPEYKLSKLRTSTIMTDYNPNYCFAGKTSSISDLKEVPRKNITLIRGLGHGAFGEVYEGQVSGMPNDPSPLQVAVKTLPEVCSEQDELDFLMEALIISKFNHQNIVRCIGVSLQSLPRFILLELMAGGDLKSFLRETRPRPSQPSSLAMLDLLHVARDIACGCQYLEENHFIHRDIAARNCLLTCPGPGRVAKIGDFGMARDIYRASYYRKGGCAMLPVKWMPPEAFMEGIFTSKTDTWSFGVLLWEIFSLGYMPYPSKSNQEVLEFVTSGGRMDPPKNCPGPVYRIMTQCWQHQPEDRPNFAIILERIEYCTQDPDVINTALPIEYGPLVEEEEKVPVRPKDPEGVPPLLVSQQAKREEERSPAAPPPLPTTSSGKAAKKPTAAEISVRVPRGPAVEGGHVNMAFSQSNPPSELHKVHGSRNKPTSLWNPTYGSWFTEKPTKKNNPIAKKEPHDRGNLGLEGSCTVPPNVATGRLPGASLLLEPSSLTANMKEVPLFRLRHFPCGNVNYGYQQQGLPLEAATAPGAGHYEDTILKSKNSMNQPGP
UniProt P10398: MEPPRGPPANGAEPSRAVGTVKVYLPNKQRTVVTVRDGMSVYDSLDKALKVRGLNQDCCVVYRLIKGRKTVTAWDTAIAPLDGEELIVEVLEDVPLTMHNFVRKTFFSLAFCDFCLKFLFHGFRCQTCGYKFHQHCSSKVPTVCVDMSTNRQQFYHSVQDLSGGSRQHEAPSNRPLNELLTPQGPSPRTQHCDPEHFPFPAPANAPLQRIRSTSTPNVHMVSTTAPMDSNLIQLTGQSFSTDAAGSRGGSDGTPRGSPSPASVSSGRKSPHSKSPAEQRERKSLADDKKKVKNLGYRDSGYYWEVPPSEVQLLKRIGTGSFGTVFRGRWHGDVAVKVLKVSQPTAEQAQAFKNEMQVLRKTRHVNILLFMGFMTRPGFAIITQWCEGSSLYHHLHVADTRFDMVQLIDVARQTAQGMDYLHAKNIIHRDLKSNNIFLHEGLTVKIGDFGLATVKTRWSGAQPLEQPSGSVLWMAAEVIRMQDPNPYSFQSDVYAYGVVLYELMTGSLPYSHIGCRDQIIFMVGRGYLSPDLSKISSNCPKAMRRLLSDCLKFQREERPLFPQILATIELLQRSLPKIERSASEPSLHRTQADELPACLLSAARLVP
UniProt O14965: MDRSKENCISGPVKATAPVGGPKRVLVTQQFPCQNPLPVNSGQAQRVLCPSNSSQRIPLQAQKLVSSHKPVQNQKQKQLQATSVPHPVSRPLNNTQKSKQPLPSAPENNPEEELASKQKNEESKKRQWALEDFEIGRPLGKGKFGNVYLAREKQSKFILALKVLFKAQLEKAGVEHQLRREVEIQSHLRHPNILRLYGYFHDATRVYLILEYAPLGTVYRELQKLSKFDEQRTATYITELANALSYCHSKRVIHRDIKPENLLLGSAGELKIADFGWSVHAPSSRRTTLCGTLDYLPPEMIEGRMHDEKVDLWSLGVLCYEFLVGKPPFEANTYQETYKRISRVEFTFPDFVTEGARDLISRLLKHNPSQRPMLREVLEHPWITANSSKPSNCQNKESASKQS
UniProt Q96GD4, whole entry: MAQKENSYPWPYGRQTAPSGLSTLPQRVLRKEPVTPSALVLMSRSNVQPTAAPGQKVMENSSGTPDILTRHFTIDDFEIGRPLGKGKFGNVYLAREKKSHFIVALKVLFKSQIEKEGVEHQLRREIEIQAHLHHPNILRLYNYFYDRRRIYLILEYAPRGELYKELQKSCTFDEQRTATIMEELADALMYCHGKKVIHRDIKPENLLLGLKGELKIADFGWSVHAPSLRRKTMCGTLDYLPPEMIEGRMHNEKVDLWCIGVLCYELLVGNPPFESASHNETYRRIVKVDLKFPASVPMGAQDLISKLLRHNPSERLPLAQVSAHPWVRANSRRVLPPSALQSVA
UniProt P51451: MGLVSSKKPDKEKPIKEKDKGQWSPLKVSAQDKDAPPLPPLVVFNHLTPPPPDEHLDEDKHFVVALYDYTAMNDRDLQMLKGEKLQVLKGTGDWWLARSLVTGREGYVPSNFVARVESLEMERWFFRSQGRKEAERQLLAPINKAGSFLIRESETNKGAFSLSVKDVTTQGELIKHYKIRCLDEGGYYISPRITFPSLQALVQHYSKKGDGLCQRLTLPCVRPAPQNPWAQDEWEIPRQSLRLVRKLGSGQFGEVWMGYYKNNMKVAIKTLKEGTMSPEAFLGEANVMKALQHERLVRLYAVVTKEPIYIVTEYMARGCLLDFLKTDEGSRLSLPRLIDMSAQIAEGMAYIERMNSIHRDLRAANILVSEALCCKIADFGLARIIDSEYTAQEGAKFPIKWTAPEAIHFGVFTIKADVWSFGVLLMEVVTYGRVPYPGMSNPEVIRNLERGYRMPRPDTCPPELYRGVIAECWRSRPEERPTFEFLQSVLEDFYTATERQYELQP
UniProt P51813: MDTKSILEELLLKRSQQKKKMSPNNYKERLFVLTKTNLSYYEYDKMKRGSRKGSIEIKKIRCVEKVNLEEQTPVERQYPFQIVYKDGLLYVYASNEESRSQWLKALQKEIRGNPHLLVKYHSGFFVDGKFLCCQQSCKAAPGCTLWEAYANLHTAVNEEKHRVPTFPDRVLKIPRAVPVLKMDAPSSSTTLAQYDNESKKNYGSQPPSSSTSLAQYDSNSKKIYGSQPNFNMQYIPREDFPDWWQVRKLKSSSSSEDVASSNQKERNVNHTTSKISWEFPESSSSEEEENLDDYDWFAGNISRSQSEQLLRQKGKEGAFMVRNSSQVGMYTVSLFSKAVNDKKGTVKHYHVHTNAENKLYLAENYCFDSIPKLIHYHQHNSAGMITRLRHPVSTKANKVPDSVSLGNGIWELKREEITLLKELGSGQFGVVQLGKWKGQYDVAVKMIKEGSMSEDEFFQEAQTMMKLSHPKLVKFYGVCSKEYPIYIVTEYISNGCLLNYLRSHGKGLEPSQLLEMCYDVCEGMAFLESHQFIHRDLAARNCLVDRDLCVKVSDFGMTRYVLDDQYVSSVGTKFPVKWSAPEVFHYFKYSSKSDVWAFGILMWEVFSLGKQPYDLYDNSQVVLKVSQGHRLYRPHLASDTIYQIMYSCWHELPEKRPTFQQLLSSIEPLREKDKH
UniProt P15056, whole entry, looked up: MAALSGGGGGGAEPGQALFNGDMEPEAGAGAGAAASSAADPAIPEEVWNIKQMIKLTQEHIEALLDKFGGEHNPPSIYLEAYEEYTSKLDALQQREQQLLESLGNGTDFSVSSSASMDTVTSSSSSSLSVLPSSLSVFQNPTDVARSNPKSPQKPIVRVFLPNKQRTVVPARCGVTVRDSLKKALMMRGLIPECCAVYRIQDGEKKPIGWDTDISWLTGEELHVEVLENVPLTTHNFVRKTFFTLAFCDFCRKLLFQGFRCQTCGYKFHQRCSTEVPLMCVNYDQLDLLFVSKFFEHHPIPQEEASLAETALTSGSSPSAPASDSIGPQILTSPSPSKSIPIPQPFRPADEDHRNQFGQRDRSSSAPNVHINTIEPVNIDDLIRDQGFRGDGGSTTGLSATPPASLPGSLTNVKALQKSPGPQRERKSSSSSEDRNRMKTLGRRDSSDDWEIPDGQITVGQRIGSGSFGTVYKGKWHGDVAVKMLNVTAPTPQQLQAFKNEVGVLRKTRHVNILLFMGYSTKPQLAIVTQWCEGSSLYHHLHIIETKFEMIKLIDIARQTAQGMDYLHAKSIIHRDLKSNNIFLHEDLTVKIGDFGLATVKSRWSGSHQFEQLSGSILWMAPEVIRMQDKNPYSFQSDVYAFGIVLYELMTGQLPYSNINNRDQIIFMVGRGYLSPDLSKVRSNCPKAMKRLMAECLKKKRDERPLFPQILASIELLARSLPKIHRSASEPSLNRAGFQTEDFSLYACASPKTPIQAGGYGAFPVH

What was measured:
Experiment in all cases: kinase-Nluc reporter destabilization hit call (1 = scored as downregulated) (binary); higher = compound decreases kinase abundance
Conditions in all cases: K562, 2-18 h
[1] = target: ABL1 (UniProt P00519)
[2] = target: AKT1 (UniProt P31749)
[3] = target: ALK (UniProt Q9UM73)
[4] = target: ARAF (UniProt P10398)
[5] = target: AURKA (UniProt O14965)
[6] = target: AURKB (UniProt Q96GD4)
[7] = target: AURKC (UniProt Q9UQB9)
[8] = target: BLK (UniProt P51451)
[9] = target: BMX (UniProt P51813)
[10] = target: BRAF (UniProt P15056)

Measured: kinase-Nluc reporter destabilization hit call

CC(C)Nc1cc(-c2c[nH]c(C(=O)N[C@H](CO)c3cccc(Cl)c3)c2)c(Cl)cn1 [Ulixertinib]
inactive: [1]; 10 µM 0 | [2]; 10 µM 0 | [3]; 10 µM 0 | [4]; 10 µM 0 | [5]; 10 µM 0 | [6]; 10 µM 0 | [7]; 10 µM 0 | [8]; 10 µM 0 | [9]; 10 µM 0 | [10]; 10 µM 0

CNC(=O)c1ccc(Nc2ncc(C(F)(F)F)c(NCc3nccnc3N(C)S(C)(=O)=O)n2)cc1 [Defactinib]
inactive: [1]; 10 µM 0 | [2]; 10 µM 0 | [3]; 10 µM 0 | [4]; 10 µM 0 | [5]; 10 µM 0 | [6]; 10 µM 0 | [7]; 10 µM 0 | [8]; 10 µM 0 | [9]; 10 µM 0 | [10]; 10 µM 0

N#CC[C@H](C1CCCC1)n1cc(-c2ncnc3[nH]ccc23)cn1 [Ruxolitinib]
inactive: [1]; 10 µM 0 | [2]; 10 µM 0 | [3]; 10 µM 0 | [4]; 10 µM 0 | [5]; 10 µM 0 | [6]; 10 µM 0 | [7]; 10 µM 0 | [8]; 10 µM 0 | [9]; 10 µM 0 | [10]; 10 µM 0

N=C(N)NC(=O)c1nc(Cl)c(N)nc1N [Amiloride hydrochloride dihydrate]
inactive: [1]; 10 µM 0 | [2]; 10 µM 0 | [3]; 10 µM 0 | [4]; 10 µM 0 | [5]; 10 µM 0 | [6]; 10 µM 0 | [7]; 10 µM 0 | [8]; 10 µM 0 | [9]; 10 µM 0 | [10]; 10 µM 0

CCCC(=O)Nc1ncnc2c1ncn2[C@@H]1O[C@@H]2COP(=O)(O)O[C@H]2[C@H]1OC(=O)CCC [Bucladesine (calcium)]
inactive: [1]; 10 µM 0 | [2]; 10 µM 0 | [3]; 10 µM 0 | [4]; 10 µM 0 | [5]; 10 µM 0 | [6]; 10 µM 0 | [7]; 10 µM 0 | [8]; 10 µM 0 | [9]; 10 µM 0 | [10]; 10 µM 0

Cn1cc(-c2cnc3ccc4ccc(CS(=O)(=O)NCc5ccccn5)cc4c(=O)c3c2)cn1 [MK-8033 (hydrochloride)]
inactive: [1]; 10 µM 0 | [2]; 10 µM 0 | [3]; 10 µM 0 | [4]; 10 µM 0 | [5]; 10 µM 0 | [6]; 10 µM 0 | [7]; 10 µM 0 | [8]; 10 µM 0 | [9]; 10 µM 0 | [10]; 10 µM 0

FC(F)(F)c1ccc(CNc2ccc(Cc3c[nH]c4ncc(Cl)cc34)cn2)cn1 [Pexidartinib]
inactive: [1]; 10 µM 0 | [2]; 10 µM 0 | [3]; 10 µM 0 | [4]; 10 µM 0 | [5]; 10 µM 0 | [6]; 10 µM 0 | [7]; 10 µM 0 | [8]; 10 µM 0 | [9]; 10 µM 0 | [10]; 10 µM 0

Cc1ccc(NC(=O)c2ccc(CN3CCN(C)CC3)cc2)cc1Nc1nc(-c2cccnc2)cs1 [Masitinib (mesylate)]
inactive: [1]; 2.5 µM 0 | [2]; 2.5 µM 0 | [3]; 2.5 µM 0 | [4]; 2.5 µM 0 | [5]; 2.5 µM 0 | [6]; 2.5 µM 0 | [7]; 2.5 µM 0 | [8]; 2.5 µM 0 | [9]; 2.5 µM 0 | [10]; 2.5 µM 0

CN1CCCN(C(=O)c2cccc(-c3ccc(/C=C4/C(=O)Nc5ccc(Cl)cc54)o3)c2)CC1 [CX-6258 (hydrochloride hydrate)]
inactive: [1]; 2.5 µM 0 | [2]; 2.5 µM 0 | [3]; 2.5 µM 0 | [4]; 2.5 µM 0 | [5]; 2.5 µM 0 | [6]; 2.5 µM 0 | [7]; 2.5 µM 0 | [8]; 2.5 µM 0 | [9]; 2.5 µM 0 | [10]; 2.5 µM 0

Random excerpt: 2 entries already listed.
FC(F)(F)c1ccc(CNc2ccc(Cc3c[nH]c4ncc(Cl)cc34)cn2)cn1 [Pexidartinib]
inactive: [1]; 10 µM 0 | [2]; 10 µM 0 | [3]; 10 µM 0 | [4]; 10 µM 0 | [5]; 10 µM 0 | [6]; 10 µM 0 | [7]; 10 µM 0 | [8]; 10 µM 0 | [9]; 10 µM 0 | [10]; 10 µM 0

N#CC[C@H](C1CCCC1)n1cc(-c2ncnc3[nH]ccc23)cn1 [Ruxolitinib]
inactive: [1]; 10 µM 0 | [2]; 10 µM 0 | [3]; 10 µM 0 | [4]; 10 µM 0 | [5]; 10 µM 0 | [6]; 10 µM 0 | [7]; 10 µM 0 | [8]; 10 µM 0 | [9]; 10 µM 0 | [10]; 10 µM 0

The listing continues:

CC(=O)Nc1cccc(-n2c(=O)n(C3CC3)c(=O)c3c(Nc4ccc(I)cc4F)n(C)c(=O)c(C)c32)c1 [Trametinib]
inactive: [1]; 10 µM 0 | [2]; 10 µM 0 | [3]; 10 µM 0 | [4]; 10 µM 0 | [5]; 10 µM 0 | [6]; 10 µM 0 | [7]; 10 µM 0 | [8]; 10 µM 0 | [9]; 10 µM 0
active: [10]; 10 µM 1

Oc1cccc(-c2nc(N3CCOCC3)c3oc4ncccc4c3n2)c1
inactive: [1]; 10 µM 0 | [2]; 10 µM 0 | [3]; 10 µM 0 | [4]; 10 µM 0 | [5]; 10 µM 0 | [6]; 10 µM 0 | [7]; 10 µM 0 | [8]; 10 µM 0 | [9]; 10 µM 0 | [10]; 10 µM 0

Cn1cc(-c2cnc3ccc4ccc(CS(=O)(=O)NCc5ccccn5)cc4c(=O)c3c2)cn1
inactive: [1]; 10 µM 0 | [2]; 10 µM 0 | [3]; 10 µM 0 | [4]; 10 µM 0 | [5]; 10 µM 0 | [6]; 10 µM 0 | [7]; 10 µM 0 | [8]; 10 µM 0 | [9]; 10 µM 0 | [10]; 10 µM 0

COCCOc1cc(F)c2c(Nc3ccc(NC(=O)Cn4cc(C(C)C)nn4)cc3)ncnc2c1
inactive: [1]; 10 µM 0 | [2]; 10 µM 0 | [3]; 10 µM 0 | [4]; 10 µM 0 | [5]; 10 µM 0 | [6]; 10 µM 0 | [7]; 10 µM 0 | [8]; 10 µM 0 | [9]; 10 µM 0 | [10]; 10 µM 0

CC(=O)N[C@H](Cc1ccc(O)cc1)C(=O)N[C@H](CCCN=C(N)N)C(=O)N[C@H](Cc1ccccc1)C(N)=O
inactive: [1]; 10 µM 0 | [2]; 10 µM 0 | [3]; 10 µM 0 | [4]; 10 µM 0 | [5]; 10 µM 0 | [6]; 10 µM 0 | [7]; 10 µM 0 | [8]; 10 µM 0 | [9]; 10 µM 0 | [10]; 10 µM 0
